Laboratory results reported in US20230242645A1.
Results are given in words; binding and its absence hold for the method and conditions named. Some results given as binding are weak or reduced against the parent protein; the word gives no strength.

Experiments:
[1] = molecular target: cynomolgus monkey PD-L1 on 293F cells (WBP315.293F.cPro1.2A) (cynomolgus monkey) (UniProt G7PSE7); experiment: flow cytometry on cynomolgus PD-L1 expressing 293F cells
[2] = molecular target: cynomolgus monkey PD-L1 on 293F cells (WBP315.293F.cPro1.2A) (cynomolgus monkey) (UniProt G7PSE7); experiment: FACS on cynomolgus PD-L1 expressing 293F cells, FITC anti-human IgG

binding [1]: binds
binding [2]: binds
B1: W3156-AP3R2-1A3-z12-hIgG1 (Fc fusion, not shown: small tags and cut ends)
chain: EVQLVESGGGLVQPGGSLRLSCAASGHFSNLAVNWFRQAPGKERELVAGILWSGGSTFYADSVKGRFTISRGNAENMLYLQMNSLRAEDTAVYYCNTGTNWGQGTLVTVSS
